Measurements: PubChem BioAssay AID2685 (National Center for Advancing Translational Sciences (NCATS), 2010)
This is one part of the list. These are further read-outs of the screen, such as a control signal, another cell line or another target. No call is given for them. Compounds called inactive in the main read-out are mostly missing here. Words in brackets tell the shape of the fitted curve; partial curves, single points and poor fits give uncertain potencies.

Assay: qHTS Assay for Lipid Storage Modulators in Drosophila S3 Cells;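 for cell number change: cells counted by Cell Tracker Red CMTPX staining in the red channel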
Details: BODIPY lipid droplet fluorescence, 18-24 h; for cell number change: measured here: cell count max response, cells fed with added oleic acid
How it was run: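 Drosophila S3 cells loaded with oleic acid (400 uM, as added) and compounds at several concentrations; lipid droplets imaged by 488-nm laser-scanning cytometry, 500–530 nm intensity and object ratio to cell channel. Percent activity normalized to 20 uM Triacsin C.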

[1] = measured here: cell number channel AC50, cells fed with added oleic acid
[2] = measured here: lipid fluorescence (Fed channel) AC50, cells fed with added oleic acid

SMILES	cell number change [%]	AC50 [1]	AC50 [2]
Cc1ccc(C(=O)N2CC(C)CC(C)C2)cc1S(=O)(=O)N1CCCCC1 (stereo unspecified)	-10.9	2310 nM [falling, single point]	
c1ccc(CCSc2ncnc3nc[nH]c23)cc1	0.326		2060 nM [rising, single point]
Cc1ccc(F)cc1NC(=O)COC(=O)c1ccc2ncsc2c1	-21.9		6510 nM [rising, partial curve, poor fit]
O=C(NCc1ccco1)c1cc2nc(C3CC3)cc(C(F)(F)F)n2n1	31.6	18400 nM [rising, single point]	146 nM [rising, full curve, poor fit]
CCCC(C)NC(=O)c1sc2nc3n(c(=O)c2c1C)CCC3 (stereo unspecified)	-23.4	1840 nM [falling, partial curve]	1840 nM [falling, full curve]
CCOC(=O)C(/C=C(\C#N)C(=O)OCC)=C(/N)N1CCN(c2ccc(OC)cc2)CC1	0.702		25900 nM [rising, partial curve]
OC(c1ccccc1)(c1ccccc1)c1ccn[nH]1	-4.95	1160 nM [falling, full curve, poor fit]	920 nM [falling, full curve, poor fit]
Cc1cc(C)n(-c2nc(NCCN(C)C)c3c4c(sc3n2)CCCC4)n1	-32.4		4.11 nM [falling, full curve, poor fit]
CCN(CC(=O)Nc1ccc(NC(C)=O)cc1)C(=O)CCCOc1cccc(C)c1	-5.86		
COc1ccc(-n2c(SCC(=O)N3CCCC3)nc3ccccc3c2=O)cc1	-10.3		411 nM [falling, partial curve, poor fit]
C/C(=N\NC(=O)c1ccccc1F)c1cccc(NC(=O)c2ccc(C)cc2)c1	-6.93		4.11 nM [falling, full curve, poor fit]
CCN(CC1CCCO1)C(=O)CCc1nnc(CCc2ccccc2OC)o1 (stereo unspecified)	13.5		25900 nM [rising, partial curve]
CCn1cc(C(=O)NCCC(C)C)c(=O)c2cc(S(=O)(=O)N3CCCCC3)ccc21	28.6		6510 nM [falling, single point]
CN(Cc1c(F)cccc1Cl)C(=O)c1ccc(NC(=O)CC2SC(N3CCCC3)=NC2=O)cc1 (stereo unspecified)		2910 nM [rising, partial curve]	
CS(=O)(=O)c1cc([N+](=O)[O-])c(Sc2nc3ccccc3[nH]2)c([N+](=O)[O-])c1	-91	8200 nM [falling, partial curve]	29100 nM [falling, single point]
COc1ccc(N2CCN(C(=O)CNS(=O)(=O)c3ccc(C)c(C)c3)CC2)cc1	16.5	5800 nM [rising, single point]	116 nM [rising, full curve, poor fit]
COc1ccc(C)cc1NC(=O)CSc1ccc(-c2sc(C)nc2C)nn1	-48.1	9200 nM [falling, partial curve]	
O=C(Cn1c(=O)n(CCc2c[nH]c3ccccc23)c(=O)c2cccnc21)Nc1ccccc1F	12		259 nM [rising, partial curve]
OC1CCC(NC(=S)Nc2ccc(SC(F)F)cc2)CC1 (stereo unspecified)	-3.06	4.61 nM [falling, full curve, poor fit]	65.1 nM [falling, full curve, poor fit]
Cc1cccc(-n2nc3c([n+]2[O-])CCc2nonc2-3)c1C	-4.78		5.17 nM [falling, full curve, poor fit]

SMILES	cell number change [%]	AC50 [1]	AC50 [2]
O=C(Nc1ccccc1Cl)c1sccc1-c1ccccc1	-1.8		580 nM [falling, single point]
CC1=NN(C(N)=S)C(=O)C1N=Nc1ccccc1Cl (stereo unspecified)			29100 nM [falling, single point]
O=C(Nc1ccccc1)N1CCCC(c2nc(-c3cccs3)no2)C1 (stereo unspecified)	64.2	29100 nM [rising, single point]	517 nM [rising, partial curve, poor fit]
COCC(=O)N(Cc1cc2cccc(C)c2[nH]c1=O)c1ccccc1	9.12		
O=C(Nc1nc(-c2ccc(F)c(F)c2)cs1)C1=COCCO1	-13.7		11600 nM [falling, partial curve]
CCOc1ccc(NC(=O)COc2ccc(C(=O)NCC3CCCO3)cc2OC)cc1 (stereo unspecified)	18.2		184 nM [rising, full curve, poor fit]
CCC(=O)Nc1ccc(Cl)c(-c2nc3ncccc3o2)c1	4.99		
CCCCN(C(=O)c1ccc(NC2CC2)c([N+](=O)[O-])c1)c1c(N)n(CC(C)C)c(=O)[nH]c1=O	9.43	103 nM [falling, full curve, poor fit]	
COC(=O)CSc1nnc(-c2ccoc2C)n1-c1ccc(C)cc1	8.53		4110 nM [falling, full curve, poor fit]
Cc1ccc2nc3c(cc2c1)CN(Cc1ccco1)C(=NCC1CCCO1)S3 (stereo unspecified)	84	7310 nM [rising, partial curve]	
COc1ccc(NC(=O)CN(C)CC(=O)NC2CCC(C)CC2)cc1 (stereo unspecified)	-9.65		82 nM [falling, full curve, poor fit]
CCOC(=O)Nc1ccc2c(c1)N(C(=O)CCCl)c1ccccc1[S@]2=O	-31.4	14600 nM [falling, single point]	
COc1ccc(CCNC(=O)C(=O)NCCC2CCCCN2S(=O)(=O)c2cccs2)cc1 (stereo unspecified)	-6.39		
CCN(CC)C(=O)CSc1nnc(-c2cc(-c3ccc(Cl)cc3)nc3ccccc23)o1	27.8	411 nM [rising, full curve, poor fit]	651 nM [rising, single point]
CN(C)S(=O)(=O)N1CCN(Cc2ccccc2)CC1	-17.8	1840 nM [falling, partial curve, poor fit]	
CC(=O)c1ccc(NC(=O)NC2CCCCCCC2)cc1	1.73		
CN1CCN(C(=O)c2ccc(CNS(=O)(=O)c3cccc(Cl)c3)cc2)CC1	-4.05		731 nM [falling, single point]
CC#CC(=O)N1CCC(C(=O)Nc2ccc(Oc3ccccc3)nc2)CC1	-0.463		
CC(CN1CCOCC1)OC(=O)c1ccc(C(C)(C)C)cc1 (stereo unspecified)	-47.8	14600 nM [falling, partial curve, poor fit]	580 nM [rising, single point]
O=C(c1cc2cc(C(F)(F)F)ccc2s1)N1CCOCC1	6.52		

SMILES	cell number change [%]	AC50 [1]	AC50 [2]
Cc1ccc(S(=O)(=O)NCCCCCC(=O)NC(C)(C)CO)cc1	-0.482	206 nM [falling, full curve, poor fit]	
Cc1nc(CNC(=O)c2cc(COc3c(F)cccc3F)on2)cs1	21.3		1030 nM [rising, full curve]
COC(=O)c1cc2c(-c3ccccc3)cc3ccccn3c-2c1C(=O)OC	-24.5	206 nM [rising, partial curve]	29100 nM [falling, single point]
CC(C)NS(=O)(=O)c1ccc(OCC(=O)NCc2ccccc2)cc1	9.63	5.8 nM [falling, full curve, poor fit]	5800 nM [falling, single point]
COc1ccccc1C(=O)NCC(=O)N/N=C/c1cn[nH]c1-c1ccccc1	-4.1	1840 nM [rising, single point]	
CCOC(=O)Cn1c(=O)oc2cc(S(=O)(=O)N(C)Cc3ccco3)ccc21	-31.3	1640 nM [falling, partial curve, poor fit]	
O=C(/C=C/c1cccc([N+](=O)[O-])c1)n1cnc2ccccc21	19.7		
O=S(=O)(Nc1nc2ccccc2nc1Cl)c1ccccc1C(F)(F)F	17.6		29100 nM [rising, single point]
O=C(NCC(c1cccnc1)N1CCN(c2ccc(F)cc2)CC1)c1ccc(F)cc1 (stereo unspecified)		130 nM [rising, full curve, poor fit]	146 nM [rising, full curve, poor fit]
Cc1ccc2sc(C)[n+](CCCS(=O)(=O)[O-])c2c1	-50	29100 nM [falling, single point]	
CCOC(=O)CSc1nnc(NC(=O)CCc2ccccc2)s1	-2.97		18400 nM [rising, single point]
Fc1ccc(C2CC(c3ccc(F)cc3)n3ncnc3N2)cc1 (stereo unspecified)	6.38		291 nM [rising, full curve, poor fit]
O=C(/C=C/c1ccccc1)Nc1ncn[nH]1	-20.2		16400 nM [falling, single point]
CCOC(=O)N1CCN(C(=O)C2CCN(S(=O)(=O)c3cc(OC)ccc3OC)CC2)CC1	27.9		
O=C(CSc1ccc([N+](=O)[O-])cn1)Nc1ccc2c(c1)OCO2	-2.7		11600 nM [rising, single point]
COc1cccc(-c2nnc(NC(=O)CCS(=O)(=O)c3ccc(C)cc3)o2)c1	25	4610 nM [rising, full curve, poor fit]	
Cc1nc2ccc(NC(=O)COc3cccc(F)c3)cc2s1		103 nM [rising, single point]	58 nM [rising, partial curve, poor fit]
O=C(CSc1ncn[nH]1)CSc1ncn[nH]1	1.57		461 nM [falling, single point]

A run of entries from the list above:
SMILES	cell number change [%]	AC50 [1]	AC50 [2]
Cc1ccc(S(=O)(=O)NCCCCCC(=O)NC(C)(C)CO)cc1	-0.482	206 nM [falling, full curve, poor fit]	
Cc1nc(CNC(=O)c2cc(COc3c(F)cccc3F)on2)cs1	21.3		1030 nM [rising, full curve]
COC(=O)c1cc2c(-c3ccccc3)cc3ccccn3c-2c1C(=O)OC	-24.5	206 nM [rising, partial curve]	29100 nM [falling, single point]
CC(C)NS(=O)(=O)c1ccc(OCC(=O)NCc2ccccc2)cc1	9.63	5.8 nM [falling, full curve, poor fit]	5800 nM [falling, single point]
COc1ccccc1C(=O)NCC(=O)N/N=C/c1cn[nH]c1-c1ccccc1	-4.1	1840 nM [rising, single point]	
CCOC(=O)Cn1c(=O)oc2cc(S(=O)(=O)N(C)Cc3ccco3)ccc21	-31.3	1640 nM [falling, partial curve, poor fit]	
O=C(/C=C/c1cccc([N+](=O)[O-])c1)n1cnc2ccccc21	19.7		
O=S(=O)(Nc1nc2ccccc2nc1Cl)c1ccccc1C(F)(F)F	17.6		29100 nM [rising, single point]
O=C(NCC(c1cccnc1)N1CCN(c2ccc(F)cc2)CC1)c1ccc(F)cc1 (stereo unspecified)		130 nM [rising, full curve, poor fit]	146 nM [rising, full curve, poor fit]
Cc1ccc2sc(C)[n+](CCCS(=O)(=O)[O-])c2c1	-50	29100 nM [falling, single point]	
CCOC(=O)CSc1nnc(NC(=O)CCc2ccccc2)s1	-2.97		18400 nM [rising, single point]
Fc1ccc(C2CC(c3ccc(F)cc3)n3ncnc3N2)cc1 (stereo unspecified)	6.38		291 nM [rising, full curve, poor fit]
O=C(/C=C/c1ccccc1)Nc1ncn[nH]1	-20.2		16400 nM [falling, single point]
CCOC(=O)N1CCN(C(=O)C2CCN(S(=O)(=O)c3cc(OC)ccc3OC)CC2)CC1	27.9		
O=C(CSc1ccc([N+](=O)[O-])cn1)Nc1ccc2c(c1)OCO2	-2.7		11600 nM [rising, single point]
